Source: paper PMC7672062
Results are given in words; binding and its absence hold for the method and conditions named. In cells and extracts the contact can be indirect. Some binding calls cover weakened binding; strength is not graded here.

Chains of the proteins cited; added tags and fusions are not shown.
UniProt Q8WUY9: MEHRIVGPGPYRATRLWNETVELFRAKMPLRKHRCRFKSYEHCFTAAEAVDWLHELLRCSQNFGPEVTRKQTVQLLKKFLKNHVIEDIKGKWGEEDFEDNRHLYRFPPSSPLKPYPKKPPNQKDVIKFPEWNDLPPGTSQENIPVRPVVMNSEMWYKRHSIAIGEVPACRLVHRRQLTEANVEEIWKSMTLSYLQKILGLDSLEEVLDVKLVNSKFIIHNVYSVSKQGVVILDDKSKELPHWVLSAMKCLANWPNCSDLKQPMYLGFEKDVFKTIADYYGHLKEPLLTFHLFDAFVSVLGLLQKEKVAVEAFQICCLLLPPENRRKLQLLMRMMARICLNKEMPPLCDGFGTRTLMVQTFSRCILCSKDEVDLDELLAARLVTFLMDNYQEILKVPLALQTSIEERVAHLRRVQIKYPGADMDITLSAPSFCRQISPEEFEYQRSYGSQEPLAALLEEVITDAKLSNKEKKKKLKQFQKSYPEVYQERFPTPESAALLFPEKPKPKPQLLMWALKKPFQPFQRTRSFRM

Target: DEP domain protein 1B (DEPDC1B) (UniProt Q8WUY9)
Experiment: co-IP; precipitated with DEPDC1B antibody, SHC1 detected in the precipitate; cells and conditions not stated

B1: SHC1 (Src homology 2 domain containing transforming protein 1) (protein, UniProt P29353 1-583)
chain: MDLLPPKPKYNPLRNESLSSLEEGASGSTPPEELPSPSASSLGPILPPLPGDDSPTTLCSFFPRMSNLRLANPAGGRPGSKGEPGRAADDGEGIVGAAMPDSGPLPLLQDMNKLSGGGGRRTRVEGGQLGGEEWTRHGSFVNKPTRGWLHPNDKVMGPGVSYLVRYMGCVEVLQSMRALDFNTRTQVTREAISLVCEAVPGAKGATRRRKPCSRPLSSILGRSNLKFAGMPITLTVSTSSLNLMAADCKQIIANHHMQSISFASGGDPDTAEYVAYVAKDPVNQRACHILECPEGLAQDVISTIGQAFELRFKQYLRNPPKLVTPHDRMAGFDGSAWDEEEEEPPDHQYYNDFPGKEPPLGGVVDMRLREGAAPGAARPTAPNAQTPSHLGATLPVGQPVGGDPEVRKQMPPPPPCPGRELFDDPSYVNVQNLDKARQAVGGAGPPNPAINGSAPRDLFDMKPFEDALRVPPPPQSVSMAEQLRGEPWFHGKLSRREAEALLQLNGDFLVRESTTTPGQYVLTGLQSGQPKHLLLVDPEGVVRTKDHRFESVSHLISYHMDNHLPIISAGSELCLQQPVERKL
binding: binds
